Results deposited as PubChem BioAssay AID743121 (NCATS, 2013)

Screen: 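Genes whose silencing strengthens cell killing by camptothecin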 (primary screen)
Cell system: MDA-MB-231 cells, a human breast cancer line
Reagent: single siRNA against human genes, 20 nM siRNA (0.8 pmol per well)
Duration: 120 h (drug added 48 h after transfection, read 72 h later)
Conditions: camptothecin 20 nM (about EC30) for 72 h; vehicle 0.1% DMSO in parallel plates
Detection: 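CellTiter-Glo ATP signal, scaled to control siRNA as percent viability; sensitisation given as log2 of untreated divided by camptothecin-treated viability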
Reading the numbers: log2 vehicle/camptothecin viability: higher = stronger sensitisation to camptothecin
Call rule: 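Each gene scored by redundant siRNA activity (RSA) over its individual siRNA ratios; a gene is called active at p < 0.001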
The whole screen tested about 26,000 reagents; below is a part drawn at random. Of all reagents, 167 (0.63%) got an active call. 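Calls are per gene from RSA p-values that are not deposited; an individual active-marked siRNA can sensitise only weakly.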 The numbers tell different reagents against one gene apart. Further read-outs or replicates are left out here.

no.	Gene	reagent	log2 vehicle/camptothecin viability	call
1	CENPK (centromere protein K)	1	-0.204	inactive
2	CENPK (centromere protein K)	2	-0.0384	inactive
3	CENPK (centromere protein K)	3	-0.252	inactive
4	CENPK (centromere protein K)	4	-0.119	inactive
5	TRIM69 (tripartite motif containing 69)	1	0.344	inactive
6	TRIM69 (tripartite motif containing 69)	2	-0.447	inactive
7	TRIM69 (tripartite motif containing 69)	3	0.0938	inactive
8	TRIM69 (tripartite motif containing 69)	4	-0.0442	inactive
9	TSPAN7 (tetraspanin 7)	1	0.417	inactive
10	TSPAN7 (tetraspanin 7)	2	-0.381	inactive
11	TSPAN7 (tetraspanin 7)	3	-0.2	inactive
12	RAB20 (RAB20, member RAS oncogene family)	1	0.293	inactive
13	RAB20 (RAB20, member RAS oncogene family)	2	-0.223	inactive
14	RAB20 (RAB20, member RAS oncogene family)	3	0.554	inactive
15	EPHB6 (EPH receptor B6)	1	-0.668	inactive
16	EPHB6 (EPH receptor B6)	2	0.635	inactive
17	EPHB6 (EPH receptor B6)	3	-0.068	inactive
18	EPHB6 (EPH receptor B6)	4	-0.0467	inactive
19	NR3C1 (nuclear receptor subfamily 3 group C member 1)	1	0.223	inactive
20	NR3C1 (nuclear receptor subfamily 3 group C member 1)	2	-0.304	inactive
21	NR3C1 (nuclear receptor subfamily 3 group C member 1)	3	0.148	inactive
22	NR3C1 (nuclear receptor subfamily 3 group C member 1)	4	-0.109	inactive
23	ITGB2 (integrin subunit beta 2)	1	-0.151	inactive
24	ITGB2 (integrin subunit beta 2)	2	-0.189	inactive
25	ITGB2 (integrin subunit beta 2)	3	-0.0456	inactive
26	ITGB2 (integrin subunit beta 2)	4	-0.877	inactive
27	PDK1 (pyruvate dehydrogenase kinase 1)	1	-0.223	inactive
28	PDK1 (pyruvate dehydrogenase kinase 1)	2	0.14	inactive
29	PDK1 (pyruvate dehydrogenase kinase 1)	3	-0.418	inactive
30	PDK1 (pyruvate dehydrogenase kinase 1)	4	-0.177	inactive

Reformatted: entries from further up.
CENPK (centromere protein K) #2 | log2 vehicle/camptothecin viability = -0.0384; call = inactive
CENPK (centromere protein K) #3 | log2 vehicle/camptothecin viability = -0.252; call = inactive
CENPK (centromere protein K) #4 | log2 vehicle/camptothecin viability = -0.119; call = inactive
TRIM69 (tripartite motif containing 69) #1 | log2 vehicle/camptothecin viability = 0.344; call = inactive
TRIM69 (tripartite motif containing 69) #2 | log2 vehicle/camptothecin viability = -0.447; call = inactive

More entries follow:
no.	Gene	reagent	log2 vehicle/camptothecin viability	call
31	PRSS37 (serine protease 37)	1	0.196	inactive
32	PRSS37 (serine protease 37)	2	-0.0893	inactive
33	PRSS37 (serine protease 37)	3	0.301	inactive
34	PRSS37 (serine protease 37)	4	0.155	inactive
35	USP35 (ubiquitin specific peptidase 35)	1	-0.296	inactive
36	USP35 (ubiquitin specific peptidase 35)	2	0.022	inactive
37	USP35 (ubiquitin specific peptidase 35)	3	-0.442	inactive
38	USP35 (ubiquitin specific peptidase 35)	4	0.362	inactive
39	FGFR2 (fibroblast growth factor receptor 2)	1	-0.272	inactive
40	FGFR2 (fibroblast growth factor receptor 2)	2	-0.116	inactive
41	FGFR2 (fibroblast growth factor receptor 2)	3	-0.262	inactive
42	FGFR2 (fibroblast growth factor receptor 2)	4	-0.661	inactive
43	GPR88 (G protein-coupled receptor 88)	1	-0.413	inactive
44	GPR88 (G protein-coupled receptor 88)	2	0.685	inactive
45	GPR88 (G protein-coupled receptor 88)	3	-0.343	inactive
46	GPR88 (G protein-coupled receptor 88)	4	-0.323	inactive
